Reference: US9713702B2, “Methods of electric field induced delivery of compounds, compositions used in delivery, and systems of delivery” (The Board of Trustee of the Leland Stanford Junior …, priority 2011, dated 2017)
At least one compound was matched to its structure with a doubt left.

How the values were obtained:
[1] = Electric field-triggered release from fluorescein-encapsulated PEDOT nanoparticles in hydrogel (Example 3); assay type: physicochemical
[2] = Release study in solution: electric field triggered release from the conductive hydrogel on a platinum electrode in PBS; assay type: physicochemical
Description: The triggered release capabilities of this system were firstly investigated in solution. In phosphate buffered saline (PBS, pH 7.2), a voltage of −0.5 V was applied between two platinum electrodes separated by a distance of 1 cm. The anode was coated with 100 mg of the hydrogel containing 0.25 wt % fluorescein-encapsulated PPy nanoparticles with a thickness around 0.1 cm. The resistivity of the swelled hydrogel and the PBS buffer was measured to be 5400 Ω·cm and 64 Ω·cm, respectively. Then, the electric field across the hydrogel was calculated to be approximately −4.5 V/cm. The electrical stimulus was applied for 10 seconds, which was repeated every five minutes, followed by measurements of the concentration of free fluorescein in the solution. […] For each stimulus, ˜20 ng of fluorescein was released. The voltage between the two electrodes was then set at −1.5 V (corresponding to an electric field across the hydrogel of −13.6 V/cm). […] The higher amount observed during the first stimulus may result from higher drug loading within the nanoparticles. Our interest in the practicability of this triggered release led us to perform a long-term release study over seven days. With the voltage between the two electrodes at −1.0 V (corresponding to an electric field across the hydrogel of −9.0 V/cm), the pulsed electric stimulus was applied to the conductive hydrogels for 20 s, once every 24 hr, followed by concentration measurements of free fluorescein in solution. […] In the case of daunorubicin, an electric field across the hydrogel of 4.5 V/cm (the set voltage was 0.5 V) was applied for 10 seconds every 5 minutes.
By applying voltage until no obvious drug release could be detected, the loading percentage of fluorescein and daunorubicin in PPy nanoparticles was calculated to be around 3.6 wt % and 3.2 wt %. […] Only with an electric stimulus can drugs be released on command. This represents an important advantage of our delivery system over conventional sustained release of drugs from hydrogel.
The platinum anode was firstly coated with the PLGA-PEG-PLGA polymer solution (100 mg of polymer) containing 0.25 wt % fluorescein (or daunorubicin)-encapsulated PPy nanoparticles, followed by solidification of the gel at room temperature. The PPy nanoparticles in the solidified gel was calculated to be 1 wt %. The coated platinum anode was then immersed in phosphate buffered saline (PBS, pH 7.2) together with a counter platinum electrode with a separated distance of 1 cm. For the release study in solution, specific voltages were applied between the two electrodes, followed by measurements of the concentration of released molecules by fluorescent assays.

[3] = fluorescein-encapsulated PPy nanoparticles in hydrogel, PBS pH 7.2, -1.5 V (-13.6 V/cm across hydrogel), 10 s every five minutes

O=C1OC2(c3ccc(O)cc3Oc3cc(O)ccc32)c2ccccc21 [fluorescein]
release of fluorescein upon electric stimulus ([1]; fluorescein-encapsulated PEDOT nanoparticles in PLGA-PEG-PLGA hydrogel, -1.0 V/cm, 10 seconds every 5 minutes, 30 minutes): released step by step | release of fluorescein without applying voltage ([1]; fluorescein-encapsulated PEDOT nanoparticles in hydrogel, control without voltage): no release | loading percentage in PPy nanoparticles ([2]; calculated by applying voltage until no obvious drug release could be detected): around 3.6 wt % | release from PPy nanoparticles in hydrogel without applying voltage ([2]; drug encapsulated in PPy nanoparticles in hydrogel, no electric field (control)): no obvious release | sustained release from hydrogel without encapsulation in PPy nanoparticles ([2]; drug in PLGA-PEG-PLGA hydrogel, not encapsulated in PPy nanoparticles, no voltage): most of the drugs in hydrogel were released in 4 days | amount of fluorescein released for each stimulus ([2]; fluorescein-encapsulated PPy nanoparticles (0.25 wt %) in PLGA-PEG-PLGA hydrogel, PBS pH 7.2, -0.5 V (-4.5 V/cm across hydrogel), 10 s every five minutes): ~20 ng | amount of fluorescein released each day upon electric stimulus ([2]; fluorescein-encapsulated PPy nanoparticles in hydrogel, -1.0 V (-9.0 V/cm across hydrogel), 20 s once every 24 hr, seven days): approximately 60 ng | amount of fluorescein released during the first stimulus [2, 3]: approximately 60 ng | amount of fluorescein released upon each subsequent stimulus [2, 3]: ~30 ng
